In the supplement of paper PMC6411743:
± gives the standard deviation of the averaged measurements. This is a selection; strong and weak results do not stand in their true shares.

Chains of the proteins cited; added tags and fusions are not shown. Lines headed by an entry give the natural chain unless they say otherwise; changes in a name come on top.
UniProt Q9Y2R2, whole entry: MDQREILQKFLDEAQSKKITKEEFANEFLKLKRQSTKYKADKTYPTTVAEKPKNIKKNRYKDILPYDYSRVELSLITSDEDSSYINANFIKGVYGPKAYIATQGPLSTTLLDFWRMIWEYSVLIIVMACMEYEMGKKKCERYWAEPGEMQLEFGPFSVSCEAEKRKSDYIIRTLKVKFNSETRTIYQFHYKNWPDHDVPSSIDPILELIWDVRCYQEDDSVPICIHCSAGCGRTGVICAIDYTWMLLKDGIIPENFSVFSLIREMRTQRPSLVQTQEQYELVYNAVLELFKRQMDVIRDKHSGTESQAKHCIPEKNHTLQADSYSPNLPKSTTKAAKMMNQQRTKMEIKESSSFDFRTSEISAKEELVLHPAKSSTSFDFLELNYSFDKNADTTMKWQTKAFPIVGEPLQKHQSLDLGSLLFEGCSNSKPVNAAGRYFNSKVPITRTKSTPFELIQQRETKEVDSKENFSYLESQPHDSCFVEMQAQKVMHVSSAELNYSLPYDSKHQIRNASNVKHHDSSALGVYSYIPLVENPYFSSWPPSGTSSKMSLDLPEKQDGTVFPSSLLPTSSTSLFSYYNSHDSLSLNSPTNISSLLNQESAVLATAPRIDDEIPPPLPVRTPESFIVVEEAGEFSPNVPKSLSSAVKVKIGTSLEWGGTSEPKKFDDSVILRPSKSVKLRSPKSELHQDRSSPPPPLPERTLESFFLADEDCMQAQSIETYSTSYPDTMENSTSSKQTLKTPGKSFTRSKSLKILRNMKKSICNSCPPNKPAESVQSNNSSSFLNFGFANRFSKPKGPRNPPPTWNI
UniProt Q9H204: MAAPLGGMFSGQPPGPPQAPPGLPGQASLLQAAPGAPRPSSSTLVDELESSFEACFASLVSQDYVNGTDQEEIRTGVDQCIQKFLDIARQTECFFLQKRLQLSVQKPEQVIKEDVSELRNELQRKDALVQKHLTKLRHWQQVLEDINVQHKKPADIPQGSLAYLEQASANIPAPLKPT
UniProt Q8WX92, whole entry: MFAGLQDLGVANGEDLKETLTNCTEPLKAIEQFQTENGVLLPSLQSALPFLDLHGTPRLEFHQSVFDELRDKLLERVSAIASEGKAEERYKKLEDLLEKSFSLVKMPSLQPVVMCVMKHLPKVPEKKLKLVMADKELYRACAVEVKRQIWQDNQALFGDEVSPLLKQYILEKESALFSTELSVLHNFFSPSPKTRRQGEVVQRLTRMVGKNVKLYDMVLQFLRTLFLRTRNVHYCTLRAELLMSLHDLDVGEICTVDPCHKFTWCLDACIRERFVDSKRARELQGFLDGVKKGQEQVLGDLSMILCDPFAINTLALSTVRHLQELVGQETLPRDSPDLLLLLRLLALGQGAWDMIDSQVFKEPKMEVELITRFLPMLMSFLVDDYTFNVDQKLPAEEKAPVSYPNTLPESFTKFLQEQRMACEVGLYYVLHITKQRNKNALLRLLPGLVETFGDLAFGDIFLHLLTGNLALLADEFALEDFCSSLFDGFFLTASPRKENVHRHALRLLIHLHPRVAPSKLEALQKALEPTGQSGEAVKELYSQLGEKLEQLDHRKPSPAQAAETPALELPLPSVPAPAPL
UniProt Q5TAX3: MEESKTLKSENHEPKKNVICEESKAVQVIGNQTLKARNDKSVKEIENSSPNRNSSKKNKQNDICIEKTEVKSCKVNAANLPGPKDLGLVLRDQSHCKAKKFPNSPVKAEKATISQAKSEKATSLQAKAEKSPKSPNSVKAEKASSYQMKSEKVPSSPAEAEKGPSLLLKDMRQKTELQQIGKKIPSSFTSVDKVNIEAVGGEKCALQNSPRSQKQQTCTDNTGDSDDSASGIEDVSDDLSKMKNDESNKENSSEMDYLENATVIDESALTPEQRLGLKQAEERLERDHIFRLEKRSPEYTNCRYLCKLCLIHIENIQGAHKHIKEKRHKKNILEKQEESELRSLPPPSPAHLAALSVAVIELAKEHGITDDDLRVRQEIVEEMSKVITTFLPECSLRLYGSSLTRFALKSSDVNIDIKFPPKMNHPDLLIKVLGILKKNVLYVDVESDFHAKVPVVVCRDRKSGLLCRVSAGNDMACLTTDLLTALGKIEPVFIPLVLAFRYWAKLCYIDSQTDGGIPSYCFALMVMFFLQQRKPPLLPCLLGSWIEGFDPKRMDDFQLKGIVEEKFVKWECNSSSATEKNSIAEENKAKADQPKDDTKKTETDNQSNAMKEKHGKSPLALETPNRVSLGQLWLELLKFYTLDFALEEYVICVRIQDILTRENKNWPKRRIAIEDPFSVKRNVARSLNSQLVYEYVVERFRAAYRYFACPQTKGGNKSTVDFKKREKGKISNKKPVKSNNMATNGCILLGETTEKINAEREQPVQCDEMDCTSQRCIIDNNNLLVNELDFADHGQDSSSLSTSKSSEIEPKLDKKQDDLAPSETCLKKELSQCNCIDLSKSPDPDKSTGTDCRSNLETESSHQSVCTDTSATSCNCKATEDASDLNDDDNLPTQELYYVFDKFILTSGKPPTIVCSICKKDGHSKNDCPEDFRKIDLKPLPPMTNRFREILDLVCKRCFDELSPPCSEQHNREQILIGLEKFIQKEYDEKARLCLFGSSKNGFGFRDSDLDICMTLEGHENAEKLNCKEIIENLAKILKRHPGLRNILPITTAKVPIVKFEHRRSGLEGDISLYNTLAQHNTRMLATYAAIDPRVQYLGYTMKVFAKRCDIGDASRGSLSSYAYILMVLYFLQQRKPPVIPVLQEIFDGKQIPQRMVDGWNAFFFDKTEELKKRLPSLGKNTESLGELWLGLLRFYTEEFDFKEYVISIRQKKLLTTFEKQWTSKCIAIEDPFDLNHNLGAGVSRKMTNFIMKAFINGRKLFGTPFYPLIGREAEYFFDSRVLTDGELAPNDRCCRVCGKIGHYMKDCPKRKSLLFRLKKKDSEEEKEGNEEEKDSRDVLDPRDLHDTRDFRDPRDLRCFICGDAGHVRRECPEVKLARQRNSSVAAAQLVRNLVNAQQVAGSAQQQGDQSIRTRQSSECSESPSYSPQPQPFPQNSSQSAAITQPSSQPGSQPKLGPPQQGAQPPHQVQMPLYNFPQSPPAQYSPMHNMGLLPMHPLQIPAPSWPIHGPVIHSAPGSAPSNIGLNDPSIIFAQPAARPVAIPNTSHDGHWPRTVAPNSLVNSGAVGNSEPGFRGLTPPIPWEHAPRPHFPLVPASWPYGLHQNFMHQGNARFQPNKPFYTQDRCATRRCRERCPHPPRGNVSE
UniProt Q86XR7, whole entry, looked up: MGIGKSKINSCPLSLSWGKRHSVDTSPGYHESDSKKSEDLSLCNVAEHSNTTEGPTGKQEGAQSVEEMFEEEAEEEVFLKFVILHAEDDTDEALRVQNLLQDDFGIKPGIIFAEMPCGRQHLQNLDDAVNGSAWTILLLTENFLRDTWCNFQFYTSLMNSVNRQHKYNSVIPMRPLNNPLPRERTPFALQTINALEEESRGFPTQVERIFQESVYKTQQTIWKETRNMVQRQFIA
UniProt Q9Y3B3: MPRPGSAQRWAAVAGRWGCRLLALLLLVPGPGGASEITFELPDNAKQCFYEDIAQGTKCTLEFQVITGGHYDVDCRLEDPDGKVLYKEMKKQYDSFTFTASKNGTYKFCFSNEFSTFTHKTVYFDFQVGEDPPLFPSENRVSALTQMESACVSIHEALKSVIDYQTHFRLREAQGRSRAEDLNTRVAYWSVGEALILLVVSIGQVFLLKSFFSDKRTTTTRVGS
UniProt Q8NEL9: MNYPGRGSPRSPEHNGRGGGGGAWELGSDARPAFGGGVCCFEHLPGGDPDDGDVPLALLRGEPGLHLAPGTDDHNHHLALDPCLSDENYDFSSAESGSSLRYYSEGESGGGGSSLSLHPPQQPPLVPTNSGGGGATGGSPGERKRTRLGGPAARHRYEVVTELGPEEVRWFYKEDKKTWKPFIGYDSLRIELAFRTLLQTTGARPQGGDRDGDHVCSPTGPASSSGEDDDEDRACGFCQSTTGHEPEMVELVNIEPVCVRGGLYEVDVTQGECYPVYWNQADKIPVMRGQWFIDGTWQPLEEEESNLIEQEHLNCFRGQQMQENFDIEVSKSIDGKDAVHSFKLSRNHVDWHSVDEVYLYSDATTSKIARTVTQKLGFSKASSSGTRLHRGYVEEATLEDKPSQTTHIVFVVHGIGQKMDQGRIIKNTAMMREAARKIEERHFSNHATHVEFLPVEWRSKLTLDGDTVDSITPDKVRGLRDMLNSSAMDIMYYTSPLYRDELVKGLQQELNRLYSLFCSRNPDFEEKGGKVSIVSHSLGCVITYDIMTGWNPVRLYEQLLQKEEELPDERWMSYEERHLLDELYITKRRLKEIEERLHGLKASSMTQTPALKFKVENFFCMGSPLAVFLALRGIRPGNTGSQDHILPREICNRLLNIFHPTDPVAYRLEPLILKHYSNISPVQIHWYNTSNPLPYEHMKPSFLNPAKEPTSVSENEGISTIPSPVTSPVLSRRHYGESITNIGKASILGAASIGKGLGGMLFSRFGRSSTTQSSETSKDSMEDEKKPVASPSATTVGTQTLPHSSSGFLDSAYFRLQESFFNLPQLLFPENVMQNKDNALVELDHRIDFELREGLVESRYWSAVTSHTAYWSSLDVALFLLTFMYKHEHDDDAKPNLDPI
UniProt Q8IXQ4: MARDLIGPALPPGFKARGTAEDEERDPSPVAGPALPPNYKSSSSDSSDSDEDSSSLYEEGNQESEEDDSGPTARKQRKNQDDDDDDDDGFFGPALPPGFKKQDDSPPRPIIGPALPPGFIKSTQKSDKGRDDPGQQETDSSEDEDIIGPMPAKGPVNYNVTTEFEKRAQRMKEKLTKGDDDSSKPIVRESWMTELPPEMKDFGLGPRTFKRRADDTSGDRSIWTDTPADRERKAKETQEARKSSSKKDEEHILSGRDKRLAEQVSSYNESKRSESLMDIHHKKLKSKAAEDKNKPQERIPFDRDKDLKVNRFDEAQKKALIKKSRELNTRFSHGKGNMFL
UniProt Q13418: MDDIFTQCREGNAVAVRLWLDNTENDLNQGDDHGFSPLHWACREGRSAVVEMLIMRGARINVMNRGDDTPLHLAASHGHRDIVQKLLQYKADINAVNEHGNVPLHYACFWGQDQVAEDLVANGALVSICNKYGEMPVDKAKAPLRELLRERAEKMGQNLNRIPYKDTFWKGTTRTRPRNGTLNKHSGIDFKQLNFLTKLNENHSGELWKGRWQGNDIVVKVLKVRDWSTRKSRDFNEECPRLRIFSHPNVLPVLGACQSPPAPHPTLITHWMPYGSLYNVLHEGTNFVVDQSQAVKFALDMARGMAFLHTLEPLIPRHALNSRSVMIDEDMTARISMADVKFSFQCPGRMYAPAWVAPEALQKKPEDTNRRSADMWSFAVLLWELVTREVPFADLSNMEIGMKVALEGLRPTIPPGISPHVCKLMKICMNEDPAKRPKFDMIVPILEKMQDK

Compound: Nc1ncnc2c1ncn2[C@@H]1O[C@H](COP(=O)(O)OP(=O)(O)NP(=O)(O)O)[C@@H](O)[C@H]1O [adenylyl imidodiphosphate]
Assay: NP40-soluble protein abundance relative to vehicle (solubility fold change) (ratio); higher = more soluble protein in presence of AMP-PNP
How it was run: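 Eight concentrations, 0.1 to 10 mM, were tested on Jurkat crude lysate for 10 min at room temperature and then 3 min at 37 °C, in three independent experiments. The lysate was solubilised with 0.8% NP40 and benzonase, ultracentrifuged, and the supernatant TMT-labelled for LC-MS/MS. Each value is the fold change against the detergent-processed vehicle in its own replicate, from vsn-normalised intensities.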

Target	NP40-soluble protein abundance (concentration: 1mM)	NP40-soluble protein abundance (concentration: 2mM)	NP40-soluble protein abundance (concentration: 4mM)	NP40-soluble protein abundance (concentration: 6mM)	NP40-soluble protein abundance (concentration: 8mM)	NP40-soluble protein abundance (concentration: 10mM)
A0A0A0MTD9|A0A0A0MTE6|A0A0B4J1S7|E9PMT0 and related entries (UniProt Q9Y2R2)	1.016 ± 0.0078	1.05 ± 0.064	1.01 ± 0.024	0.995 ± 0.017	0.973 ± 0.014	1.01 ± 0.017
A0A087X0M1|H0YAA8 and related entries (UniProt Q9H204)	0.954 ± 0.048	1.01 ± 0.079	0.945 ± 0.03	0.932 ± 0.061	0.887 ± 0.073	0.919 ± 0.032
A0A0X1KG71|Q8WX92 (UniProt Q8WX92)	0.9679 ± 0.0021	0.982 ± 0.028	0.947 ± 0.043	0.997 ± 0.051	0.978 ± 0.02	0.982 ± 0.031
A0A0C4DFM7|Q5TAX3 (UniProt Q5TAX3)	1.02 ± 0.034	1.06 ± 0.041	1.04 ± 0.085	0.97 ± 0.035	0.951 ± 0.063	0.967 ± 0.063
A0A0A6YYA0|Q86XR7-2|Q9Y3B3 and related entries (UniProt Q9Y3B3+Q86XR7)	0.984 ± 0.053	1 ± 0.037	1.01 ± 0.031	1.05 ± 0.074	1.06 ± 0.039	1.03 ± 0.089
A0A087X0H7|Q8NEL9 and related entries (UniProt Q8NEL9)	0.995 ± 0.016	0.982 ± 0.065	1.02 ± 0.024	1.07 ± 0.09	1.05 ± 0.065	1.08 ± 0.12
A0A0A0MRI1|Q8IXQ4 (UniProt Q8IXQ4)	1.07 ± 0.028	1.14 ± 0.057	1.08 ± 0.055	1.07 ± 0.02	1.04 ± 0.034	1.05 ± 0.075
A0A0A0MTH3|Q13418 (UniProt Q13418)	0.962 ± 0.032	0.902 ± 0.069	0.955 ± 0.018	0.98 ± 0.028	0.995 ± 0.042	0.961 ± 0.0099
A0A0C4DH44|P62888 (UniProt P62888)	1.01 ± 0.1	0.984 ± 0.069	0.953 ± 0.12	0.931 ± 0.087	0.94 ± 0.1	0.951 ± 0.11

Single entries from the list.
Entry for A0A0A0MRI1|Q8IXQ4 (UniProt Q8IXQ4) under NP40-soluble protein abundance (concentration: 2mM): 1.14 ± 0.057
Entry for A0A0X1KG71|Q8WX92 (UniProt Q8WX92) under NP40-soluble protein abundance (concentration: 6mM): 0.997 ± 0.051
